{"source": "paper PMC5494301", "about": "“Functions of tryptophan residues in EWGWS insert of Plasmodium falciparum enolase” (FEBS Open Bio, 2017)", "molecules": {"B1": {"name": "W105,107A variant of recombinant P. falciparum enolase, GST tag removed (enzyme, Plasmodium falciparum, UniProt Q27727 1-446, looked up)", "chain": "MAHVITRINAREILDSRGNPTVEVDLETNLGIFRAAVPSGASTGIYEALELRDNDKSRYLGKGVQKAIKNINEIIAPKLIGMNCTEQKKIDNLMVEELDGSKNEAGASKSKLGANAILAISMAVCRAGAAPNKVSLYKYLAQLAGKKSDQMVLPVPCLNVINGGSHAGNKLSFQEFMIVPVGAPSFKEALRYGAEVYHTLKSEIKKKYGIDATNVGDEGGFAPNILNANEALDLLVTAIKSAGYEGKVKIAMDVAASEFYNSENKTYDLDFKTPNNDKSLVKTGAQLVDLYIDLVKKYPIVSIEDPFDQDDWENYAKLTAAIGKDVQIVGDDLLVTNPTRITKALEKNACNALLLKVNQIGSITEAIEACLLSQKNNWGVMVSHRSGETEDVFIADLVVALRTGQIKTGAPCRSERNAKYNQLLRIEESLGNNAVFAGEKFRLQLN"}}, "key": {"[1]": {"biological_target": "W105,107K variant of recombinant P. falciparum enolase, GST tag removed (Plasmodium falciparum) (UniProt Q27727)", "test": "SEC; proteins without the GST tag; Superdex‐200 HiLoad 16/600, 1–2 mg of protein in 2 mL buffer; 50 mM Tris‐HCl, 150 mM NaCl, 5 mM MgCl2 pH 7.5; dimer to monomers; both purified"}, "[2]": {"biological_target": "W105,107A variant of recombinant P. falciparum enolase, GST tag removed (Plasmodium falciparum) (UniProt Q27727)", "test": "SEC; proteins without the GST tag; Superdex‐200 HiLoad 16/600, 1–2 mg of protein in 2 mL buffer; 50 mM Tris‐HCl, 150 mM NaCl, 5 mM MgCl2 pH 7.5; dimer to monomers; both purified"}}, "note": "These are yes or no findings as the source states them, for the method shown. For some assays here: Sequences can lack the tags named with a protein."}
{"molecule": "W105,107K variant of recombinant P. falciparum enolase, GST tag removed (from UniProt Q27727 1-446) (enzyme)", "values": [{"measurement": "binding", "setting": "[1]", "result": "no binding (tested: 1–2 mg of protein in 2 mL buffer)"}]}
{"molecule": "B1", "values": [{"measurement": "binding", "setting": "[2]", "result": "no binding (tested: ~ 2–3 mg·mL^−1)"}]}
